No constants are given. Whether binding was seen depends on the method and setting. In cells and extracts the contact can be indirect. Some results given as binding are weak or reduced against the parent protein; the word gives no strength.

By UniProt entry, the sequences of proteins in these tests, tags left out.
UniProt P28698: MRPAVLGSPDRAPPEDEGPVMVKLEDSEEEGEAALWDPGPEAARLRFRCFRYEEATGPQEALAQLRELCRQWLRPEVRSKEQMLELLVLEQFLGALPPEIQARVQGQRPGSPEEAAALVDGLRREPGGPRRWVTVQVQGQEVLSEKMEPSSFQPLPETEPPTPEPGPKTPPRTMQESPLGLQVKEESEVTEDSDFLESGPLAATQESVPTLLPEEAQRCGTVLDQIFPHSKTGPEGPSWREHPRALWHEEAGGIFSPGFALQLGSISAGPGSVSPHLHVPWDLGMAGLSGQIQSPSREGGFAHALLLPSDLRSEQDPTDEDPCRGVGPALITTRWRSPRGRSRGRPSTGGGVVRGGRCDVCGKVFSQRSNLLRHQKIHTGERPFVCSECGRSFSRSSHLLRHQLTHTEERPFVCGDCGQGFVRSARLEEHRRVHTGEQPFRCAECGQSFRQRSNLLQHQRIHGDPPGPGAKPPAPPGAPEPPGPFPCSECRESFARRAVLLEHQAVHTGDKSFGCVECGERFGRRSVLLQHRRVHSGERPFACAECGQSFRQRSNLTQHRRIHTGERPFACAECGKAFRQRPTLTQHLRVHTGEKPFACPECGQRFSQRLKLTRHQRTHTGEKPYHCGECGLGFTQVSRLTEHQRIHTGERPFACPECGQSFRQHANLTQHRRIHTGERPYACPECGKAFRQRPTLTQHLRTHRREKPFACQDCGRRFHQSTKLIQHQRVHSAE
UniProt P68400: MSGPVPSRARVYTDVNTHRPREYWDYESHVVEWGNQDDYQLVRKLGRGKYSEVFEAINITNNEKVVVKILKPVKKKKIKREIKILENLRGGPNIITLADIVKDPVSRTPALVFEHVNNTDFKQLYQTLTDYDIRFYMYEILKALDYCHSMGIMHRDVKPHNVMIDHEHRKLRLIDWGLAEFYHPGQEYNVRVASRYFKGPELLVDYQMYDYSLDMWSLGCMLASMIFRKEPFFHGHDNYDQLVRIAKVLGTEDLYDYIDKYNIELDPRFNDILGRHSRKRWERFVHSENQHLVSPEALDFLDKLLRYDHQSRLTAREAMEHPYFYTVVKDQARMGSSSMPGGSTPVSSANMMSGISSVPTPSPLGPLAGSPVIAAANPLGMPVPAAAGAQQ

One test addresses Flag-MZF1 (UniProt P28698). Briefly: co-IP; HEK293 cells transfected with Flag-MZF1; lysis in 50 mM Tris-HCl pH 7.4, 150 mM NaCl, 0.5% NP-40; immunoprecipitation with anti-Flag Ab, western blot with anti-CK2α Ab.
The target in test [1] is GST-tagged CK2α (human recombinant CK2) (human) (UniProt P68400). Briefly: pull-down; 3 ug GST-CK2α immobilised on Glutathione-Sepharose 4B, incubated overnight at 4 °C with lysates of HEK293 cells transfected with HA-MZF1; washed with PBS; western blot with anti-HA Ab; only the target purified.

Consider “endogenous CK2α (from UniProt P68400 1-391) (enzyme)”, for which the binding result in the test with Flag-MZF1 is listed as “binds”.
In the case of “HA-tagged MZF1 (myeloid zinc finger 1) (from UniProt P28698 1-734)”, the binding result in test [1] is recorded as “binds”.
